Each number is a percent effect as filed. The controls that fix the scale are not given in the record; negative values are as filed. Compounds were drawn at random from those tested, without regard to their results. Two or more numbers in one place are separate tests of the same structure; such repeats can differ widely.

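Viability assay of Plasmodium falciparum sporozoites; the read-out is not stated. The concentration is filed as 10 mM, unlikely as a test dose, so the dose is not known. Direction is inferred from retests: higher values go with lower viability. Strong results were mostly tested again. About 34,000 compounds were tested under these conditions; 0.84% (about 280) showed 50% or more at least once.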

structure	percent effect
CCOc1ccc(N2CCCN=C2NC(=O)c2ccccc2C)cc1	2.181
CCc1nnc(CN2CCCC(Cn3nc(C)nc3C)C2)o1 (stereo unspecified)	-18.14
CCS(=O)(=O)N(C)C1CCN(C(=O)c2ccc(Cl)cc2)CC1	8.672
O=C(c1ccnc(-n2ccnc2)c1)N1CCCC(n2ccnc2)C1 (stereo unspecified)	12.48
CSCCC(=O)N1CCC(c2nccn2Cc2cscn2)CC1	-12.54
Cn1ccnc1C(=O)N1CCC2(CCN2c2ncccn2)C1.O=C(O)C(F)(F)F (stereo unspecified)	-1.04
CC[C@@H](Cn1ncc2ccccc2c1=O)NC(=O)c1ccco1	5.102
CS(=O)(=O)N1CCCC12CCCN(S(=O)(=O)c1ccc(F)cc1)C2 (stereo unspecified)	-10.61
CCc1c(C(=O)N2CCN(CC(N)=O)CC2)cnn1C(C)(C)C	0.8965
O=C(NCc1ccccc1CN1CCCC1=O)Nc1nccs1	-7.314
CS(=O)(=O)NCc1nnc2n1CCN(Cc1ccncc1)C2	2.663
[H][C@]12CN(C(=O)c3ccnn3C)C[C@@]1([H])OCCN(S(C)(=O)=O)C2	11.44
CN(C)C(c1ccccn1)[C@H]1CC[C@H](CNC(=O)C2CCCC2)CC1 (stereo partly specified)	2.906
CCn1ncc2c1C(COCC1CC1)CN(c1ccc(C)nn1)C2.O=C(O)C(F)(F)F.O=C(O)C(F)(F)F (stereo unspecified)	-0.1733
c1csc(COC[C@H]2CCC[C@]23CN(Cc2ccoc2)CCO3)n1	2.148
COc1ccc(-c2c(C(C)C)nn3c(=N)c(C#N)n[nH]c23)cc1	-25.92
Nc1cc(-c2c[nH]nc2C2CCCN2CCCc2ccccc2)ccn1 (stereo unspecified)	5.309
[H][C@]12CC[C@]([H])(CN(C(=O)c3ccc(Cl)cc3)C1)N(CCOC)C2	3.627 & 5.488
Cn1nc(C(=O)NC2CC2)cc1NC(=O)C1CC1	0.4353
Cc1nn(C)c(C)c1CCC(=O)N1CCCC(n2cncn2)C1 (stereo unspecified)	4.272
O=C(O)C(F)(F)F.[H][C@@]12C[C@H](C(=O)NC)[C@@]([H])(CN(Cc3ccc(OC)cc3)C1)O2	5.908
O=C(Cc1ccccc1Cl)N1CCN(CC(O)COCCO)CC1 (stereo unspecified)	9.141
CCc1ccc(CN(C)C(=O)C(c2ccccc2F)N(C)C)nc1 (stereo unspecified)	-15.54
CCN(C)c1ncnc2c1CCN(Cc1ccoc1)CC2	-0.783
[H][C@@]12CCN(S(=O)(=O)c3cccnc3)C[C@]1(c1nc(C)no1)CCO2	5.604
CC(C)(C)c1noc(CN2CCCN(Cc3cccs3)CC2)n1	4.906
Cn1cc(CN2CCCC23CCN(C(=O)c2cccn2C)CC3)cn1.O=C(O)C(F)(F)F	-6.152
O=C(O)C(F)(F)F.[H][C@@]12CCN(Cc3c(C)noc3C)C[C@]1(C(=O)N1CCOCC1)CCO2	-2.973
CN1CCC/C1=N\S(=O)(=O)c1ccc(NC(=O)c2ccco2)cc1	11.82
O=C(O)C(F)(F)F.O=C(O)C(F)(F)F.[H][C@@]12CCN(c3ncccn3)[C@]1([H])CC[C@@H](C(=O)NCc1cccnc1)O2	13.28
Cc1cncc(C2CCCN(C(=O)c3ccc(C)[nH]c3=O)C2)n1 (stereo unspecified)	-2.827
CC(C)c1noc(CCC(=O)NC(C)c2nnc3n2CCCCC3)n1 (stereo unspecified)	-7.612
FC(F)(F)COCCN1CCCC(c2noc(C3CC3)n2)C1 (stereo unspecified)	-1.073
OCc1cccc(CNCc2cccc3c2OCCO3)c1	-8.516
CN1CCC(c2cccc(NCc3ccncc3)n2)CC1	0.9974 & -19.34 & -9.389
COCCNC(=O)C1CN(Cc2nccs2)Cc2ccnn2C1.O=C(O)C(F)(F)F.O=C(O)C(F)(F)F (stereo unspecified)	21.55
Nc1no[n+]([O-])c1C(=O)NCc1ccco1	16.75
CSCCc1ccc(NC(=O)NCc2ccnc(N(C)C)c2)cc1	-2.703
COc1ccc(C(=O)N2CCOCC2c2ccc(C)o2)cc1 (stereo unspecified)	-15.2
c1cnc(Nc2ccc(C3CCCCN3)cn2)cn1 (stereo unspecified)	-2.241 & -0.3197 & -12.37
CC(C)CCNC(=O)CNC(=O)N1CCc2c([nH]c3ccc(Cl)cc23)C1	-21.8 & -14.35
c1csc(-c2nc(CNCCn3cccn3)cs2)c1	-134.6 & 17.77 & -147.1
Cc1cccc(N2CC3(CCN(c4nncs4)C3)CC2=O)c1 (stereo unspecified)	-3.07
Cc1nnc(CN(C)C2CCCN(Cc3noc(C4CC4)n3)C2)o1 (stereo unspecified)	1.346
Cc1nc(C)c2c(n1)CCN(C(=O)C1(C#N)CC1)CC2	5.707
CC(C)NC(=O)N1CCC2(CCC(=O)N2CCN2CCCC2)CC1.O=C(O)C(F)(F)F	-1.489
O=S(=O)(C1CC1)N1CCc2ncnc(N3CCOCC3)c2CC1	-8.27
Cc1ncccc1O[C@H]1CCN(C(=O)Cc2cccs2)CC[C@@H]1O	-3.534
CC1(c2cc[nH]n2)CCN(C(=O)c2ccc(Cl)cc2)CC1	-4.371
O=S(=O)(NCC1CCCN(Cc2ccccc2F)C1)C1CC1 (stereo unspecified)	-31.76 & -36.26
Cc1nn(C)c(N(C)C)c1CNCc1ccc2c(c1)OCO2	-7.092
Cn1c(C2CC2)nc2c1CCN(CCS(=O)(=O)c1ccccc1)C2	0
CCc1c(C(=O)N2CCNC(=O)C2)cnn1C(C)(C)C	-0.9206
[H][C@@]12C[C@H](C(=O)N3CCOCC3)[C@@]([H])(CN(C(=O)Nc3ccc(F)cc3)C1)O2	-17.77
CCC(CCN)n1ccc(C(F)(F)F)n1 (stereo unspecified)	3.349
Cc1cnn(CC2CN(CC(=O)N(C)c3nccs3)CCO2)c1 (stereo unspecified)	-10.29
O=C(O)C(F)(F)F.O=C(O)C(F)(F)F.[H][C@@]12CN(Cc3ccc(OC)cc3)C[C@]1([H])OCCN2c1ncccn1	-24.34
[H][C@@]12COC[C@]1(CNS(C)(=O)=O)CN(C(=O)C1CCCCC1)C2	-7.314
O=C(O)C(F)(F)F.[H][C@@]12CNC(=O)[C@H](C)[C@]1([H])CN(CCc1ccccc1)C2	-11.37
CCCn1nc(C)c(CN(CCN(C)C)Cc2ccccn2)c1C	7.046
Cc1cc(C[S+]([O-])Cc2ccccc2F)no1 (stereo unspecified)	3.72
CC(=O)N1CCCN(CC(C)(O)c2cccc(C(F)(F)F)c2)CC1 (stereo unspecified)	-18.67
Cc1cc(C)c2nc(CN3CC[C@@H](O)C3)cc(O)c2c1	2.235
Cc1ccc(N2CCCC(NCc3ccc(-n4ccnc4)cc3)C2)nn1 (stereo unspecified)	-1.338
CN(C)C1CCCN(Cc2cccc(Cn3cccn3)c2)CC1 (stereo unspecified)	-2.544
CC(C)N(C)CC(=O)N1CCCC(c2ccc(C(=O)O)cc2)C1 (stereo unspecified)	1.975
O=C(Nc1cc(F)ccc1OCC1CCCO1)NC1CC1 (stereo unspecified)	2.489
CCn1cnnc1CNC(=O)N1CCCN(C(C)=O)CC1	1.85
CCc1nnc2n1CCN(C(=O)CN(C)C1CC1)C2	11.64
CC(=O)N1Cc2ccccc2CC1C(=O)Nc1ccc(N(C)C)cn1 (stereo unspecified)	19.17 & 5.17
[H][C@]12CCN(C(=O)c3cc(C)on3)CC[C@@]1([H])S(=O)(=O)N(CCOC)C2	4.291
Cc1c(NC(=O)C(C)N(C)C)c(=O)n(-c2ccccc2)n1C (stereo unspecified)	-3.715
COC(=O)C(NC(=O)C1CCC1)c1cc(F)ccc1F (stereo unspecified)	5.557
O=C(O)C(F)(F)F.O=C(O)C(F)(F)F.[H][C@@]12CCN(c3ccncn3)C[C@@]1([H])O[C@@H](C(=O)NCc1cccnc1)C2	8.263
CC(CN1CCN(C)CC1)NC(=O)c1cc(Cl)c2c(c1)OCO2 (stereo unspecified)	-6.943
COC(=O)[C@H](C)NC(=O)c1cnc(Cc2ccc(F)cc2)s1	-21.32
CC(C)C(Sc1nccn1C1CC1)C(=O)NCc1cccnc1 (stereo unspecified)	-4.489
CSc1ccc(C(CNC(=O)C2CC2)N2CCc3sccc3C2)cc1 (stereo unspecified)	-8.906
CCc1nc(N2CCCN(c3ncccn3)CC2)c2cnn(C)c2n1	-17.08
Cc1ccc(S(C)(=O)=O)cc1C(=O)NS(C)(=O)=O	10.54
CCn1ncc2c1C(COC)CN(Cc1ccsc1)C2 (stereo unspecified)	-7.843
Fc1cnc(N2CCCC3(COCCN(c4nccs4)C3)C2)nc1.O=C(O)C(F)(F)F.O=C(O)C(F)(F)F (stereo unspecified)	-19.95
COc1cccc(-n2nnc(C(=O)N3CCOC(C)C3)c2C)c1 (stereo unspecified)	-1.596
Cc1noc(C)c1CCC(=O)N1CCN(CCn2cncn2)CC1	5.599
Cc1ccc(-c2nc(CN3CCCC3Cn3cncn3)cs2)o1 (stereo unspecified)	21.85
CCOc1ccc(S(=O)(=O)NC(=O)c2c(C)noc2C(C)C)cc1	-4.153
CC(C)c1nc(O)c2nnn(C[C@@H]3CCCN(Cc4ccsc4)C3)c2n1	-14.26
CNc1nc2c(s1)C(=O)CN(C(=O)NCCc1ccccc1)C2	12.96
COc1cccc(CC(=O)N2CCCC(n3nc(C)cc3C)C2)c1 (stereo unspecified)	2.662
O=C(C1CCOCC1)N1CC[C@H](O)[C@@H]1Cc1cccnc1	10.78
Cc1ncccc1CNCC1CCN(CC(O)c2ccccc2)CC1 (stereo unspecified)	-14.8 & -4.663 & -25.35
CC(C)c1cc(N(C)Cc2cc(C3CC3)on2)n2nccc2n1	18.92

10 of the entries, repeated:

{"structure": "O=C(Cc1ccccc1Cl)N1CCN(CC(O)COCCO)CC1", "stereo": "stereo unspecified", "percent effect": 9.141}
{"structure": "CCc1ccc(CN(C)C(=O)C(c2ccccc2F)N(C)C)nc1", "stereo": "stereo unspecified", "percent effect": -15.54}
{"structure": "CC(=O)N1Cc2ccccc2CC1C(=O)Nc1ccc(N(C)C)cn1", "stereo": "stereo unspecified", "percent effect": "19.17 & 5.17"}
{"structure": "Cc1noc(C)c1CCC(=O)N1CCN(CCn2cncn2)CC1", "percent effect": 5.599}
{"structure": "COc1ccc(-c2c(C(C)C)nn3c(=N)c(C#N)n[nH]c23)cc1", "percent effect": -25.92}
{"structure": "CCc1nc(N2CCCN(c3ncccn3)CC2)c2cnn(C)c2n1", "percent effect": -17.08}
{"structure": "Cc1ncccc1O[C@H]1CCN(C(=O)Cc2cccs2)CC[C@@H]1O", "percent effect": -3.534}
{"structure": "CC(C)c1nc(O)c2nnn(C[C@@H]3CCCN(Cc4ccsc4)C3)c2n1", "percent effect": -14.26}
{"structure": "CC(C)N(C)CC(=O)N1CCCC(c2ccc(C(=O)O)cc2)C1", "stereo": "stereo unspecified", "percent effect": 1.975}
{"structure": "CC(C)C(Sc1nccn1C1CC1)C(=O)NCc1cccnc1", "stereo": "stereo unspecified", "percent effect": -4.489}

From ChEMBL document CHEMBL3988442, “University of Dundee, Small-Polar-MMV Screening Library” (2021).